The target of the assay is scFv1 conjugated with a GST tag (PET-N-GST-scFv1) (Nile tilapia (Oreochromis niloticus)). Briefly: far-Western, overlay or dot blot.

Results are given in words; binding and its absence hold for the method and conditions named. Some results given as binding are weak or reduced against the parent protein; the word gives no strength.

B1: S3-WT expressed in prokaryotes (pET32a) (peptide)
chain: GYQLASEIRGTIPLSS
Take B1: the binding result was “binds”.

These data come from article PMC12724136, “Design of antibody structure-guided epitope vaccines in silico to induce potent immune responses against emerging viruses” (Journal of Virology, 2025).
